Experimental data published in PubChem BioAssay AID2551 (National Center for Advancing Translational Sciences (NCATS), 2010).
In all, about 310,000 compounds went through this assay and about 17,000 (5.5%) were called active. Inconclusive results, whose numbers are uncertain, are shown with a selection of clear calls. Calls come from the whole dose curve; as a rule, active = well fitted inhibition curve with a large enough effect; inconclusive = small, poorly fitted or top-dose-only effect, or effect the other way; inactive = no such curve, though single readings can be large or run the other way. A potency beside an inconclusive call is a rough fit, not a confirmed value.

By UniProt entry, the sequences of proteins in these tests, tags left out. Where a name states a change or a piece, a line headed by the entry shows the natural chain unless it says otherwise.
UniProt P51450: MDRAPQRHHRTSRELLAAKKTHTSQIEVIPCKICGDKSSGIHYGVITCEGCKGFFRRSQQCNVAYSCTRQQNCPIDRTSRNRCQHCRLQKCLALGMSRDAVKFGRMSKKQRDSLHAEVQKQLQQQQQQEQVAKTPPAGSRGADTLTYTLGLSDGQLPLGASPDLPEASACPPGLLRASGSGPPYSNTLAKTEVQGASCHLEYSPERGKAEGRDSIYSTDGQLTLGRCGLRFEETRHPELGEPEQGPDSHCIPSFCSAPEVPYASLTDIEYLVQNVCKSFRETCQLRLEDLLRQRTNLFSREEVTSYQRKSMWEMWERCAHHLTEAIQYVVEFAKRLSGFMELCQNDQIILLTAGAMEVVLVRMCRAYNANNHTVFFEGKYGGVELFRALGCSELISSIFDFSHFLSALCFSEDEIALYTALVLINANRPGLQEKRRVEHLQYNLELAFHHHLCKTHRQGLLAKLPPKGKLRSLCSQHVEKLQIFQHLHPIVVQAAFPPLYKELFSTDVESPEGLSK

Target: Nuclear receptor ROR-gamma (Mus musculus) (UniProt P51450)
Test: qHTS for inhibitors of ROR gamma transcriptional activity; note: nearly all actives have a fitted effect of over 60% in size
Details: Drosophila S2 Gal4-RORgamma UAS-luciferase reporter, 20 h; activity change, negative = inhibition: at 53.6 µM (top of the series)
Summary of the method: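 Luciferase reporter read in Schneider cells carrying Gal4-RORγ (mouse) and UAS-Photinus luciferase; cells given compound 1 h before 700 uM copper sulfate induction, then incubated 20 h at ambient temperature.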
% is set by controls: 0 for no effect and ±100 for the full control effect; potency is the fitted concentration of half-maximal effect.

Compound	Potency	activity change, negative = inhibition
Cc1c(C(=O)Nc2ccc(Cc3ccncc3)cc2)cccc1[N+](=O)[O-]	inconclusive: 31.6 µM [activator, single point]	–
Cc1nc(SC(C)C(=O)NC2CCCCC2C)c2c(C)c(C)sc2n1 (stereo not given)	inactive	–
CCc1n[nH]c(=S)n1/N=C/c1c[nH]c2ccc(Br)cc12	inconclusive: 5.62 µM [inhibitor, partial curve]	–
CN1CCN(c2nc(-c3ccc(Br)cc3)nnc2-c2ccccc2)CC1	inconclusive: 0.398 µM [activator, partial curve, poor fit]	–
CCOc1ccccc1C(=O)Nc1nnc(CC)s1	inconclusive: 0.316 µM [activator, full curve, poor fit]	–
COc1ccc(CCNS(=O)(=O)c2cccc(C(=O)O)c2)cc1OC	inactive	–
CC(=O)c1ccc(NC(=O)CSc2nnc(-c3ccoc3C)n2Cc2ccccc2)cc1	inconclusive: 7.08 µM [activator, partial curve]	–
CCOC(=O)N1CCC(NC(=O)CCC(=O)N2CCOc3ccc(C)cc32)CC1	inconclusive: 8.91 µM [activator, partial curve]	–
O=C1CC(N2CCCCCC2)C(=O)N1c1ccc2c(c1)OCO2 (stereo not given)	active: 10 µM	–
CNC(=O)/C(C#N)=C/c1c(F)cccc1Cl	inconclusive: 35.5 µM [inhibitor, single point]	–
Cc1ccc(Cl)cc1NC(=O)c1ccccc1OCC(=O)Nc1ccc(Cl)cc1	inconclusive: 35.5 µM [inhibitor, single point]	–
CCOC(=O)N1CCN(C(=O)CN(c2ccccc2OC)S(=O)(=O)c2ccc(OC)cc2)CC1	inactive	–
CCc1ccc(N=C2NC(=O)/C(=C/c3cc(OC)c(OC)c(OC)c3)S2)cc1	inconclusive: 10 µM [inhibitor, single point]	–
COc1ccccc1NC(=O)N(CCN1CCOCC1)Cc1cc2cc(C)cc(C)c2[nH]c1=O	inactive	–
O=C(CC(=O)N/N=C\c1ccc([N+](=O)[O-])cc1)NCCc1ccccc1	inactive	–
COc1cccc(/C=N/NC(=O)CCc2n[nH]c(=O)[nH]c2=O)c1O	inconclusive: 8.91 µM [inhibitor, partial curve, poor fit]	–
N/N=C1\CCCc2nonc21	inactive	–
O=C(Nc1cccc(Cl)c1)N(CCN1CCOCC1)Cc1ccccc1F	inconclusive: 35.5 µM [activator, single point]	–
CCOc1cc(C(=O)NCc2ccco2)cc(OCC)c1OCC	inactive	–
COc1ccc(/C=N/Nc2nonc2N)cc1OC	inconclusive: 0.0355 µM [inhibitor, full curve, poor fit]	–
CCc1ccc(-c2cc(C)no2)cc1S(=O)(=O)N1CCN(c2ccccn2)CC1	inactive	–
COc1ccc(Nc2nc(N)nc(CSc3nc(C)cc(C)n3)n2)cc1	inactive	–
Cc1ccccc1CN1C[C@@H]2C[C@@H](c3cn(C)nc3-c3ccccc3)N3CCC[C@@]23C1=O	inconclusive: 22.4 µM [inhibitor, partial curve, poor fit]	–
O=C(CSCc1ccc(Cl)cc1Cl)Nc1nccs1	inconclusive: 20 µM [inhibitor, single point]	–

Compound	Potency	activity change, negative = inhibition
C/C(=N\S(=O)(=O)c1ccc(C)cc1)NC(=S)Nc1ccccc1	active: 11.2 µM	–
Cc1ccnc(NC(=O)c2ccccc2NC(=O)c2ccc(Cl)cc2Cl)c1	inconclusive: 25.1 µM [inhibitor, single point]	–
COCCN(CCOC)c1nc(C)nc2c1nc(-c1ccccc1)n2CC1CCN(C)CC1	inactive	–
CCN(c1ccccc1)S(=O)(=O)c1ccc(C(=O)Nc2nccs2)cc1	inconclusive: 8.91 µM [inhibitor, partial curve]	–
NS(=O)(=O)c1ccc2nc(NC(=O)c3ccc4c(c3)OCCO4)sc2c1	inconclusive: 17.8 µM [inhibitor, single point]	–
CCCCOc1ccc(NC(=O)CSc2cccc3cccnc23)cc1	inconclusive: 35.5 µM [inhibitor, single point]	–
Cc1ccc(CN2CCC(CO)(CC3CCCCO3)CC2)o1 (stereo not given)	inactive	–
COc1ccc(/C=N/NC(=S)Nc2ccccc2[N+](=O)[O-])cc1O	active: 5.62 µM	–
CCOC(=O)C1(CCCc2ccccc2)CCN(C(=O)CCN2CCCCC2=O)CC1	inconclusive: 15.8 µM [activator, partial curve]	–
O=C(COc1cccc(Oc2ccccc2)c1)Nc1ncccn1	inconclusive: 15.8 µM [activator, partial curve]	–
Cc1ccc(-n2nnnc2SCC(=O)Nc2cccnc2Cl)cc1	inconclusive: 2.82 µM [activator, full curve]	–
O=C(CSc1nc2cc(Cl)ccc2s1)c1cc2ccccc2o1	inconclusive: 35.5 µM [inhibitor, single point]	–
CCOC(=O)C(NC(=O)Nc1ccc(C(N)=O)cc1)(c1ccccc1)C(F)(F)F (stereo not given)	inconclusive: 35.5 µM [activator, single point]	–
Cc1occc1-c1n[nH]c(=S)n1-c1ccccc1	inconclusive: 35.5 µM [inhibitor, single point]	–
O=S(=O)(Nc1cc(O)cc2cccnc12)c1ccc(Cl)s1	active: 3.98 µM	–
COC(=O)c1scc(C)c1S(=O)(=O)Nc1ccc(C)cc1	inconclusive: 11.2 µM [inhibitor, partial curve, poor fit]	–
CC(=O)OC1CC(OC(C)=O)[C@]2(C)C(CC(=O)[C@]3(C)C2CC[C@@]2(C)C(c4ccoc4)OC(=O)C4O[C@@]423)C1(C)C (stereo not given in full)	inactive	–
Cc1[nH]c2ccccc2c1C(=O)COC(=O)c1cccc(S(=O)(=O)N2CCCCC2)c1	inactive	–
CCn1ncc(CNC(=O)CCSc2nc(-c3ccco3)cc(C(F)(F)F)n2)c1C	inconclusive: 8.91 µM [activator, partial curve]	–
Cc1cc(SCc2ccc(Cl)cc2)nc(=O)[nH]1	inconclusive: 6.31 µM [activator, partial curve]	–
O=S1(=O)N=C(N/N=C/c2ccco2)c2ccccc21	active: 7.94 µM	–
CCC(C(=O)OC)n1c(-c2ccccc2)nc2ccccc2c1=O (stereo not given)	inconclusive: 12.6 µM [activator, single point]	–
CCOc1ccc(NS(=O)(=O)c2ccc(OCC)c3ncccc23)cc1	inconclusive: 35.5 µM [inhibitor, single point]	–
CCc1nnc(NC(=O)CSc2nnc(-c3ccoc3C)n2-c2cccc(C)c2)s1	inconclusive: 12.6 µM [activator, single point]	–

Compound	Potency	activity change, negative = inhibition
COc1ccc(-c2nnc(NC(=O)c3ccc(S(=O)(=O)N4CCc5ccccc5C4)cc3)o2)cc1	active: 0.126 µM	–
CCC(=O)Nc1c(S(=O)(=O)c2ccccc2)c2nc3ccccc3nc2n1C(C)c1ccccc1 (stereo not given)	inconclusive: 35.5 µM [activator, single point]	–
O=C(Nc1cccnc1)c1c(F)c(F)c(F)c(F)c1F	inconclusive: 35.5 µM [inhibitor, single point]	–
O=C(NCCc1ccccc1)C(c1cccs1)N(C(=O)CCl)c1ccc(Cl)cc1 (stereo not given)	inconclusive: 35.5 µM [inhibitor, single point]	–
CCCCCCCCCCCCCCCCn1cc[n+](CC(C)=O)c1	inconclusive: 5.01 µM [activator, full curve]	–
CCOc1ccc(-c2c(C(=O)N/N=C/c3ccco3)nnn2-c2nonc2N)cc1	inconclusive: 17.8 µM [inhibitor, single point]	–
COc1ccc(CCNC2=CC(=O)CC(C)(C)C2)cc1	inconclusive: 35.5 µM [inhibitor, single point]	–
C/C(CCN1CCCc2nc(C)c(C)cc21)=N\O[C@@H](C)c1cc(-c2c(C)cc(C)cc2C)no1	–	inactive: 1.29% [at 10 µM]
O=C(NCCNC(=O)c1ccccn1)c1ccccc1	inconclusive: 35.5 µM [inhibitor, single point]	–
O=C(NN=C1CCCC1)c1ccc(Cl)cc1	inconclusive: 35.5 µM [inhibitor, single point]	–
O=C(Nc1ccc(S(=O)(=O)N2CCCCC2)cc1)C1CC(=O)N(c2ccccc2)C1 (stereo not given)	inconclusive: 35.5 µM [activator, single point]	–
Cc1cccc(NC(=S)N/N=C/c2c[nH]c3ccccc23)c1	active: 2.51 µM	–
Cc1ccc(OCc2cc(C(=O)N3CCN(C4CCCCC4)CC3)no2)cc1C	inconclusive: 8.91 µM [activator, partial curve]	–
Cc1cccc(N2C(=O)NC3(CCCCC3)C2=O)c1	inactive	–
COc1ccccc1CN(Cc1nc2ccccc2c(=O)[nH]1)S(=O)(=O)c1ccc2ccccc2c1	inconclusive: 11.2 µM [activator, partial curve]	–
CCCNC(=O)CS(=O)Cc1nc(-c2ccc(OC)cc2)oc1C (stereo not given)	inconclusive: 35.5 µM [inhibitor, single point]	–
N#CC1=C(N)Nc2nc3ccccc3n2C1c1ccc(Cl)cc1 (stereo not given)	inconclusive: 5.62 µM [activator, single point]	–
CC(=O)c1cccc(NC(=O)c2cnn3ccccc23)c1	inactive	–
CC1CCN(S(=O)(=O)c2ccc(C(=O)Nc3nnc(C4CC4)o3)cc2)CC1	active: 0.355 µM	–
COc1cccc2oc3ccc(C#Cc4ccccn4)cc3c(=O)c12	inconclusive: 11.2 µM [inhibitor, partial curve]	–
CCOC(=O)c1sc(NC(=S)NC(=O)c2ccco2)nc1C	inconclusive: 0.708 µM [inhibitor, single point]	–
Cc1ccc(C(=O)NC(=S)N2CCN(c3ccc([N+](=O)[O-])cc3)CC2)cc1	active: 0.708 µM	–

Given comma-delimited: 4 of the compounds above
Compound,Potency,"activity change, negative = inhibition"
O=C(Nc1ccc(S(=O)(=O)N2CCCCC2)cc1)C1CC(=O)N(c2ccccc2)C1 (stereo not given),"inconclusive: 35.5 µM [activator, single point]",–
Cc1cccc(NC(=S)N/N=C/c2c[nH]c3ccccc23)c1,active: 2.51 µM,–
Cc1ccc(OCc2cc(C(=O)N3CCN(C4CCCCC4)CC3)no2)cc1C,"inconclusive: 8.91 µM [activator, partial curve]",–
Cc1cccc(N2C(=O)NC3(CCCCC3)C2=O)c1,inactive,–
